{
  "source": "PubChem BioAssay AID2685",
  "about": "(National Center for Advancing Translational Sciences (NCATS), 2010)",
  "assay": "qHTS Assay for Lipid Storage Modulators in Drosophila S3 Cells;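 for cell number change: cells counted by Cell Tracker Red CMTPX staining in the red channel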",
  "conditions": "BODIPY lipid droplet fluorescence, 18-24 h; for cell number change: measured here: cell count max response, cells fed with added oleic acid",
  "how_it_was_run": "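Laser-scanning cytometry quantifies lipid droplet accumulation (500–530 nm total intensity; droplet/cell object ratio) in oleic acid-fed (400 uM added) Drosophila S3 cells treated with a concentration series. 20 uM Triacsin C defined 100% inhibition.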",
  "key": {"[1]": {"conditions": "measured here: lipid fluorescence (Fed channel) AC50, cells fed with added oleic acid"}, "[2]": {"conditions": "measured here: cell number channel AC50, cells fed with added oleic acid"}},
  "note": "The other results are listed elsewhere or left out. The main result of the screen is listed elsewhere. These columns were measured beside it and carry no call. Most of these compounds were active or inconclusive in the main read-out, so they are no random draw. Potencies come from curve fits of mixed quality, noted in brackets.",
  "data": [
    {"molecule": "CN(CC(=O)Nc1ccc(Cl)c(C(F)(F)F)c1)C(=O)C1CC(=O)N(Cc2ccco2)C1", "note": "(stereo not given)", "values": [
      {"measurement": "AC50", "setting": "[1]", "value": "6.51 µM [falling, single point]"}
    ]},
    {"molecule": "CN1CC(=O)Nc2ccc(F)cc2C1=O", "values": [
      {"measurement": "AC50", "setting": "[2]", "value": "1.64 µM [falling, partial curve, poor fit]"},
      {"measurement": "AC50", "setting": "[1]", "value": "6.51 µM [falling, partial curve, poor fit]"}
    ]},
    {"molecule": "CCOC(=O)N1CCN(C(=O)CCN2C(=O)c3ccccc3S2(=O)=O)CC1", "values": [
      {"measurement": "cell number change", "value": -18.1, "unit": "%"}
    ]},
    {"molecule": "COC(=O)C1=C(C)NC(C)=C(C(=O)OCC2CCCO2)C1c1ccc(Cl)c([N+](=O)[O-])c1", "note": "(stereo not given)", "values": [
      {"measurement": "cell number change", "value": -7.51, "unit": "%"}
    ]},
    {"molecule": "CC(=O)N(c1nc(CCl)cs1)c1ccc(C)cc1C", "values": [
      {"measurement": "cell number change", "value": -36, "unit": "%"},
      {"measurement": "AC50", "setting": "[2]", "value": "2.59 µM [falling, partial curve, poor fit]"},
      {"measurement": "AC50", "setting": "[1]", "value": "6.51 µM [falling, single point]"}
    ]},
    {"molecule": "Cc1nc2cc(S(=O)(=O)N(C)C)ccc2n1-c1ccccc1", "values": [
      {"measurement": "cell number change", "value": -19.1, "unit": "%"},
      {"measurement": "AC50", "setting": "[1]", "value": "16.4 µM [rising, single point]"}
    ]},
    {"molecule": "Clc1ccccc1CO/N=C1\\CCCc2nonc21", "values": [
      {"measurement": "cell number change", "value": 1.97, "unit": "%"},
      {"measurement": "AC50", "setting": "[1]", "value": "8.2 µM [rising, partial curve, poor fit]"}
    ]},
    {"molecule": "Cc1ccc(NC(=O)CSc2nccn2C)cc1S(=O)(=O)N1CCOCC1", "values": [
      {"measurement": "cell number change", "value": 9.5, "unit": "%"}
    ]},
    {"molecule": "COC(=O)c1ccc(C(=O)OC)c(NC(=O)C2CC2)c1", "values": [
      {"measurement": "cell number change", "value": -41.9, "unit": "%"},
      {"measurement": "AC50", "setting": "[2]", "value": "7.31 µM [falling, partial curve]"},
      {"measurement": "AC50", "setting": "[1]", "value": "1.84 µM [falling, full curve]"}
    ]},
    {"molecule": "O=c1nc2ccccc2c2n1CC(CN1CCN(c3ccc(F)cc3)CC1)N2", "note": "(stereo not given)", "values": [
      {"measurement": "cell number change", "value": 59.3, "unit": "%"},
      {"measurement": "AC50", "setting": "[2]", "value": "16.4 µM [rising, partial curve, poor fit]"},
      {"measurement": "AC50", "setting": "[1]", "value": "23.1 µM [rising, partial curve]"}
    ]},
    {"molecule": "Cc1cc(Nc2ccc(Br)cc2)nc(-c2ccccc2O)n1", "values": [
      {"measurement": "AC50", "setting": "[1]", "value": "29.1 µM [falling, single point]"}
    ]},
    {"molecule": "O=C(N/N=C/C(Br)=C\\c1ccccc1)c1ccc2nc[nH]c2c1", "values": [
      {"measurement": "cell number change", "value": -43.4, "unit": "%"},
      {"measurement": "AC50", "setting": "[2]", "value": "5.8 µM [falling, full curve]"}
    ]},
    {"molecule": "Cc1c(C(=O)OCC(=O)Nc2c(C)n(C)n(-c3ccccc3)c2=O)oc2ccccc12", "values": [
      {"measurement": "cell number change", "value": -8.31, "unit": "%"}
    ]},
    {"molecule": "Cc1c(Cl)cccc1NC(=S)NC1CCCC1", "values": [
      {"measurement": "cell number change", "value": -3.63, "unit": "%"},
      {"measurement": "AC50", "setting": "[1]", "value": "6.51 µM [falling, full curve, poor fit]"}
    ]},
    {"molecule": "S=c1[nH]c(-c2ccc(Cl)cc2)cs1", "values": [
      {"measurement": "cell number change", "value": 38.1, "unit": "%"}
    ]},
    {"molecule": "Cc1cc(C)c(C#N)c(SCc2ccc(C#N)cc2)n1", "values": [
      {"measurement": "cell number change", "value": 9.22, "unit": "%"},
      {"measurement": "AC50", "setting": "[1]", "value": "4.11 µM [rising, partial curve, poor fit]"}
    ]},
    {"molecule": "COc1ccc(CCNC(=O)C(=O)NCC2OCCN2S(=O)(=O)c2cc(F)ccc2F)cc1", "note": "(stereo not given)", "values": [
      {"measurement": "cell number change", "value": 43.2, "unit": "%"},
      {"measurement": "AC50", "setting": "[2]", "value": "11.6 µM [rising, partial curve]"}
    ]},
    {"molecule": "Cc1ccc(CSCCNC(=O)CN(c2cc(C)ccc2C)S(C)(=O)=O)cc1", "values": [
      {"measurement": "cell number change", "value": 8.92, "unit": "%"},
      {"measurement": "AC50", "setting": "[2]", "value": "0.082 µM [falling, full curve, poor fit]"},
      {"measurement": "AC50", "setting": "[1]", "value": "0.103 µM [falling, full curve, poor fit]"}
    ]},
    {"molecule": "FC(F)(F)COc1nc(N2CCCCC2)nc(N2CCNCC2)n1", "values": [
      {"measurement": "cell number change", "value": -156, "unit": "%"},
      {"measurement": "AC50", "setting": "[2]", "value": "23.1 µM [falling, partial curve]"},
      {"measurement": "AC50", "setting": "[1]", "value": "0.651 µM [falling, full curve, poor fit]"}
    ]},
    {"molecule": "O=C(O)C1CC=C(Cl)CC1C(=O)NCc1ccccc1", "note": "(stereo not given)", "values": [
      {"measurement": "cell number change", "value": 7.82, "unit": "%"}
    ]},
    {"molecule": "CCNC(=O)COc1ncnc2scc(-c3ccc(F)cc3)c12", "values": [
      {"measurement": "AC50", "setting": "[2]", "value": "0.517 µM [falling, full curve]"},
      {"measurement": "AC50", "setting": "[1]", "value": "0.366 µM [falling, partial curve, poor fit]"}
    ]},
    {"molecule": "Cc1nn(C)c(Cl)c1CN1CCCC(C(=O)Nc2cccc(-n3cccn3)c2)C1", "note": "(stereo not given)", "values": [
      {"measurement": "cell number change", "value": -3.23, "unit": "%"},
      {"measurement": "AC50", "setting": "[1]", "value": "0.00461 µM [rising, full curve, poor fit]"}
    ]},
    {"molecule": "CCC(C)C(NC(=O)C1CCC(C)CC1)C(=O)Nc1cc(OC)ccc1OC", "note": "(stereo not given)", "values": [
      {"measurement": "cell number change", "value": -31.5, "unit": "%"},
      {"measurement": "AC50", "setting": "[2]", "value": "29.1 µM [falling, single point]"},
      {"measurement": "AC50", "setting": "[1]", "value": "29.1 µM [falling, single point]"}
    ]},
    {"molecule": "Cc1c(OC(C)C(=O)N[C@@H](Cc2ccccc2)C(=O)O)ccc2c3c(c(=O)oc12)CCCC3", "note": "(stereo not given in full)", "values": [
      {"measurement": "cell number change", "value": 11.5, "unit": "%"},
      {"measurement": "AC50", "setting": "[2]", "value": "0.0731 µM [rising, full curve, poor fit]"}
    ]},
    {"molecule": "O=[N+]([O-])c1ccccc1S(=O)(=O)Oc1ccccc1/C=N/n1cnnc1", "values": [
      {"measurement": "cell number change", "value": 36.7, "unit": "%"},
      {"measurement": "AC50", "setting": "[2]", "value": "29.1 µM [rising, single point]"}
    ]},
    {"molecule": "O=C1c2ccccc2NC(c2ccco2)N1NS(=O)(=O)c1ccccc1", "note": "(stereo not given)", "values": [
      {"measurement": "cell number change", "value": 2.15, "unit": "%"},
      {"measurement": "AC50", "setting": "[1]", "value": "2.31 µM [rising, partial curve]"}
    ]},
    {"molecule": "CCCCNC(=O)CCC(=O)Nc1ccc2nc(N3CCOCC3)cc(C)c2c1", "values": [
      {"measurement": "cell number change", "value": 152, "unit": "%"},
      {"measurement": "AC50", "setting": "[2]", "value": "29.1 µM [rising, single point]"}
    ]},
    {"molecule": "CC1CCN(c2oc(-c3ccccc3Cl)nc2C#N)CC1", "values": [
      {"measurement": "cell number change", "value": -10.8, "unit": "%"}
    ]},
    {"molecule": "CCN(CC)S(=O)(=O)c1cc(OC)c(C)cc1C", "values": [
      {"measurement": "cell number change", "value": 38.6, "unit": "%"}
    ]},
    {"molecule": "O=c1c2[nH]c3ccc(F)cc3c2nc2n1CCS2", "values": [
      {"measurement": "cell number change", "value": 21.1, "unit": "%"},
      {"measurement": "AC50", "setting": "[1]", "value": "6.51 µM [rising, single point]"}
    ]},
    {"molecule": "NNC(=O)c1n[nH]c(=O)c2ccccc12", "values": [
      {"measurement": "cell number change", "value": 42.1, "unit": "%"},
      {"measurement": "AC50", "setting": "[2]", "value": "29.1 µM [rising, single point]"}
    ]},
    {"molecule": "CCOC(=O)c1c(C)[nH]c(C(=O)OCC(=O)N2c3ccccc3CC2C)c1C", "note": "(stereo not given)", "values": [
      {"measurement": "cell number change", "value": 9.9, "unit": "%"},
      {"measurement": "AC50", "setting": "[1]", "value": "0.461 µM [rising, full curve]"}
    ]},
    {"molecule": "Cc1ccc(OCc2cc(C(=O)NC(C)Cc3cccnc3)no2)cc1C", "note": "(stereo not given)", "values": [
      {"measurement": "cell number change", "value": -1.47, "unit": "%"},
      {"measurement": "AC50", "setting": "[2]", "value": "6.51 µM [rising, single point]"},
      {"measurement": "AC50", "setting": "[1]", "value": "11.6 µM [falling, single point]"}
    ]},
    {"molecule": "CCOC(=O)c1cnc(SCc2nc(N)nc(Nc3ccc(C)cc3)n2)nc1N", "values": [
      {"measurement": "cell number change", "value": -37, "unit": "%"},
      {"measurement": "AC50", "setting": "[2]", "value": "20.6 µM [falling, single point]"},
      {"measurement": "AC50", "setting": "[1]", "value": "0.411 µM [rising, full curve, poor fit]"}
    ]},
    {"molecule": "O=C(O)c1cccc(NC2=C(n3nnc4ccccc43)C(=O)c3ccccc3C2=O)c1", "values": [
      {"measurement": "cell number change", "value": 19.8, "unit": "%"},
      {"measurement": "AC50", "setting": "[2]", "value": "0.291 µM [rising, full curve, poor fit]"},
      {"measurement": "AC50", "setting": "[1]", "value": "5.8 µM [falling, single point]"}
    ]},
    {"molecule": "Cc1nnc(SCC(=O)NCC2COc3ccccc3O2)s1", "note": "(stereo not given)", "values": [
      {"measurement": "cell number change", "value": 13.9, "unit": "%"},
      {"measurement": "AC50", "setting": "[2]", "value": "0.92 µM [falling, full curve]"},
      {"measurement": "AC50", "setting": "[1]", "value": "0.92 µM [falling, full curve]"}
    ]},
    {"molecule": "Cc1cccc(Sc2nc(-c3ccccc3)ccc2C#N)c1", "values": [
      {"measurement": "cell number change", "value": -17, "unit": "%"}
    ]},
    {"molecule": "Cc1cccc(C)c1NC(=O)CSCC(=O)O", "values": [
      {"measurement": "cell number change", "value": 0.297, "unit": "%"},
      {"measurement": "AC50", "setting": "[1]", "value": "4.11 µM [rising, full curve]"}
    ]}
  ]
}
